Experimental data taken from article PMC8351955, “Targeting Mycobacterium tuberculosis response to environmental cues for the development of effective antitubercular drugs” (PLoS Biology, 2021).
Values joined by “and” are separate entries in the source; they are usually repeats but may differ in a detail not shown here. Equal values may be shown once. This continues a long series; more values of the same kind are listed elsewhere.

Tested on: macrophage phagosomal [Cl−] in BMDMs
Test: Phagosomal maturation assay, BAC/AF594 beads (Cl− readout)
Format: cell-based, mouse
Method: Carboxyfluorescein (pH readout), DQ-BSA/Alexa Fluor 594 (AF594) (proteolysis readout), and BAC/AF594 (Cl^− readout) beads were generated essentially as previously described, except that 10,10′-Bis[3-carboxylpropyl]-9,9′-biacridinium dinitrate di-NHS ester (BAC-SE) was purchased from emp Biotech LLC. BMDMs were isolated from C57BL/6J mice (The Jackson Laboratory) and maintained as described above. […] Assay buffer consisted of PBS (pH 7.2), supplemented with 5% FBS, 5 mM dextrose, 1 mM CaCl2, 2.7 mM KCl, and 0.5 mM MgCl2 in the case of assays with the carboxyfluorescein or DQ-BSA/AF594 beads. For assays with the BAC/AF594 beads, assay buffer consisted of PBS (pH 7.2), supplemented with 5% FBS, 5 mM dextrose, 1 mM calcium acetate, 1.35 mM K2SO4, and 0.5 mM MgSO4 [9]. Sensor beads at approximately 2 to 5 beads/macrophage in appropriate assay buffer were finally added, with data acquisition on a Biotek Synergy H1 microplate reader with bottom read signal detection started within 2 to 3 minutes of bead addition. Excitation/emission wavelengths were 450 nm/520 nm and 490 nm/520 nm for carboxyfluorescein, 490 nm/520 nm for DQ-BSA, 365 nm/505 nm for BAC, and 590 nm/617 nm for AF594. Each experiment was run with a total of 3 to 5 replicate wells/condition, with temperature maintained at 37°C throughout the assay. Wells were read every 2 minutes for 2 hours for the carboxyfluorescein bead assays, every 2 minoutes for 4 hours for the DQ-BSA/AF594 bead assays, and every 1 minute for 2 hours for the BAC/AF594 bead assays. Analyses of the results were performed as previously described.

CCSc1ncc(CN2CCN(c3nc4ccccc4o3)CC2)cn1 [C6, 2-(4-((2-(ethylthio)pyrimidin-5-yl)methyl)piperazin-1-yl)benzo[d]oxazole]
AF594/BAC fluorescence, replicates (Time 23 minutes): 0.5942 and 0.6218 and 0.6389 and 0.6135 and 0.6215 | AF594/BAC fluorescence, replicates (Time 24 minutes): 0.6352 and 0.6194 and 0.6515 and 0.6198 and 0.6401 | AF594/BAC fluorescence, replicates (Time 25 minutes): 0.6147 and 0.6096 and 0.6494 and 0.5986 and 0.642 | AF594/BAC fluorescence, replicates (Time 26 minutes): 0.6159 and 0.6483 and 0.6554 and 0.6055 and 0.6301 | AF594/BAC fluorescence, replicates (Time 27 minutes): 0.6061 and 0.6359 and 0.6514 and 0.6041 and 0.6221 | AF594/BAC fluorescence, replicates (Time 28 minutes): 0.6371 and 0.6305 and 0.6466 and 0.6288 and 0.6471 | AF594/BAC fluorescence, replicates (Time 29 minutes): 0.6665 and 0.642 and 0.6575 and 0.6119 and 0.6485 | AF594/BAC fluorescence, replicates (Time 30 minutes): 0.6196 and 0.6438 and 0.6647 and 0.5987 and 0.6421 | AF594/BAC fluorescence, replicates (Time 31 minutes): 0.6188 (2×) and 0.6383 and 0.6363 and 0.6442 | AF594/BAC fluorescence, replicates (Time 32 minutes): 0.6271 and 0.6428 and 0.6703 and 0.6113 and 0.6394 | AF594/BAC fluorescence, replicates (Time 33 minutes): 0.6323 and 0.6506 and 0.68 and 0.6106 and 0.6675 | AF594/BAC fluorescence, replicates (Time 34 minutes): 0.6405 and 0.6553 (3×) and 0.638 | AF594/BAC fluorescence, replicates (Time 35 minutes): 0.6125 and 0.6563 and 0.6594 and 0.6063 and 0.6614 | AF594/BAC fluorescence, replicates (Time 36 minutes): 0.6326 and 0.6542 and 0.68 and 0.6263 and 0.6609 | AF594/BAC fluorescence, replicates (Time 37 minutes): 0.6414 and 0.6472 and 0.6487 and 0.6393 and 0.664 | AF594/BAC fluorescence, replicates (Time 38 minutes): 0.6675 and 0.6506 and 0.6576 and 0.6143 and 0.6698 | AF594/BAC fluorescence, replicates (Time 39 minutes): 0.635 and 0.649 and 0.651 and 0.6353 and 0.6387 | AF594/BAC fluorescence, replicates (Time 40 minutes): 0.6519 and 0.6497 and 0.6598 and 0.6333 and 0.6591 | AF594/BAC fluorescence, replicates (Time 41 minutes): 0.6481 and 0.6488 and 0.6778 and 0.6436 and 0.6477 | AF594/BAC fluorescence, replicates (Time 42 minutes): 0.6322 and 0.657 and 0.6501 and 0.6432 and 0.6668 | AF594/BAC fluorescence, replicates (Time 43 minutes): 0.6484 and 0.6312 and 0.6896 and 0.658 and 0.6347 | AF594/BAC fluorescence, replicates (Time 44 minutes): 0.6128 and 0.6532 and 0.6729 and 0.646 and 0.6441 | AF594/BAC fluorescence, replicates (Time 45 minutes): 0.6459 and 0.6392 and 0.6647 and 0.6364 and 0.6426 | AF594/BAC fluorescence, replicates (Time 47 minutes): 0.6406 and 0.6548 and 0.6738 and 0.646 and 0.6436 | AF594/BAC fluorescence, replicates (Time 49 minutes): 0.6469 and 0.6323 and 0.649 and 0.6444 and 0.6786 | AF594/BAC fluorescence, replicates (Time 51 minutes): 0.6427 and 0.6576 and 0.6543 and 0.6018 and 0.6494 | AF594/BAC fluorescence, replicates (Time 53 minutes): 0.6356 and 0.6518 and 0.647 and 0.6274 and 0.6456 | AF594/BAC fluorescence, replicates (Time 55 minutes): 0.64 and 0.6439 and 0.6519 and 0.6434 and 0.6509 | AF594/BAC fluorescence, replicates (Time 57 minutes): 0.6711 and 0.6509 and 0.6563 and 0.6483 and 0.6531 | AF594/BAC fluorescence, replicates (Time 59 minutes): 0.634 and 0.6589 and 0.6622 and 0.6255 and 0.6562 | AF594/BAC fluorescence, replicates (Time 61 minutes): 0.6155 and 0.6354 and 0.6681 and 0.6259 and 0.6558 | AF594/BAC fluorescence, replicates (Time 63 minutes): 0.6372 and 0.6415 and 0.6498 and 0.6333 and 0.6527 | AF594/BAC fluorescence, replicates (Time 65 minutes): 0.6549 and 0.6388 and 0.6632 and 0.6431 and 0.6709 | AF594/BAC fluorescence, replicates (Time 67 minutes): 0.6638 and 0.6522 and 0.667 and 0.6368 and 0.66 | AF594/BAC fluorescence, replicates (time 46 minutes): 0.6361 and 0.6528 and 0.6588 and 0.6111 and 0.6601 | AF594/BAC fluorescence, replicates (time 48 minutes): 0.6342 and 0.6441 and 0.6594 and 0.6198 and 0.6542 | AF594/BAC fluorescence, replicates (time 50 minutes): 0.6279 and 0.6539 and 0.6768 and 0.6291 and 0.6258 | AF594/BAC fluorescence, replicates (time 52 minutes): 0.6309 and 0.6339 and 0.6597 and 0.6233 and 0.6708 | AF594/BAC fluorescence, replicates (time 54 minutes): 0.6454 and 0.6419 and 0.6866 and 0.6249 and 0.6685 | AF594/BAC fluorescence, replicates (time 56 minutes): 0.6284 (2×) and 0.6467 and 0.6776 and 0.6667 | AF594/BAC fluorescence, replicates (time 58 minutes): 0.6298 and 0.6407 and 0.6825 and 0.6278 and 0.6807 | AF594/BAC fluorescence, replicates (time 60 minutes): 0.6395 and 0.6365 and 0.6537 and 0.6304 and 0.6457 | AF594/BAC fluorescence, replicates (time 62 minutes): 0.6336 and 0.6342 and 0.6557 and 0.6408 and 0.6478 | AF594/BAC fluorescence, replicates (time 64 minutes): 0.6573 and 0.6448 and 0.6683 and 0.6109 and 0.6674 | AF594/BAC fluorescence, replicates (time 66 minutes): 0.6324 and 0.6485 and 0.6665 and 0.615 and 0.6452
